Values from PubChem BioAssay AID1259405 (NCATS, 2018)
Here is one part, drawn at random, of about 50,000 reagents. About 4,000 of all reagents (8%) were called active. 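Mouse siRNA library applied to hamster cells; one well for each siRNA.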 Reagents against one gene are numbered here. Reagent sequences are not shown.

Aim: 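Knock-downs that lift recombinant protein yield in hamster ovary cells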 (primary screen)
Cells: Chinese hamster CHO-K1 ovary cells with stable secreted eGFP expression
Knock-down reagent: single siRNA against mouse genes, 0.8 pmol siRNA per well (2 µl of 400 nM stock)
Timing: 3 days
Measurement: 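Per-well intracellular GFP measured by laser scanning cytometry, plus viability from ATP luminescence, each relative to plate median of non-targeting control wells, in %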
Direction: GFP, % of control: higher = more GFP per well, higher productivity; viability (ATP), % of control: higher = more viable cells (more ATP)
Rule for the call: 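a knock-down is called active if GFP reaches 120% or more of non-targeting control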

gene | reagent no. | GFP, % of control | viability (ATP), % of control | activity call
Shc1 (GeneID 20416) | 1 | 69.9 | 56 | inactive
Shc1 (GeneID 20416) | 2 | 82.6 | 67.5 | inactive
Shc1 (GeneID 20416) | 3 | 152 | 118 | active
Nfam1 (GeneID 74039) | 1 | 65.2 | 50.7 | inactive
Nfam1 (GeneID 74039) | 2 | 50.6 | 43.1 | inactive
Nfam1 (GeneID 74039) | 3 | 71.2 | 73.5 | inactive
Ttc9c (GeneID 70387) | 1 | 107 | 100 | inactive
Ttc9c (GeneID 70387) | 2 | 85.1 | 86.5 | inactive
Ttc9c (GeneID 70387) | 3 | 32.3 | 37.2 | inactive
Wdr44 (GeneID 72404) | 1 | 54 | 59.7 | inactive
Wdr44 (GeneID 72404) | 2 | 70.2 | 66.1 | inactive
Wdr44 (GeneID 72404) | 3 | 74.3 | 77 | inactive
Nrsn2 (GeneID 228777) | 1 | 35 | 61.4 | inactive
Nrsn2 (GeneID 228777) | 2 | 84.3 | 71.4 | inactive
Nrsn2 (GeneID 228777) | 3 | 117 | 83.7 | inactive
Or4a78 (GeneID 259145) | 1 | 40.8 | 74.5 | inactive
Or4a78 (GeneID 259145) | 2 | 54.8 | 97.5 | inactive
Or4a78 (GeneID 259145) | 3 | 81.2 | 129 | inactive
Hps3 (GeneID 12807) | 1 | 46.1 | 64.3 | inactive
Hps3 (GeneID 12807) | 2 | 64.1 | 55.6 | inactive
Hps3 (GeneID 12807) | 3 | 60.5 | 77.3 | inactive
Slc26a11 (GeneID 268512) | 1 | 79.1 | 56.7 | inactive
Slc26a11 (GeneID 268512) | 2 | 78.1 | 85.7 | inactive
Slc26a11 (GeneID 268512) | 3 | 113 | 99.3 | inactive
Prnp (GeneID 19122) | 1 | 77.4 | 70.5 | inactive
Prnp (GeneID 19122) | 2 | 65.7 | 65.8 | inactive
Prnp (GeneID 19122) | 3 | 72.6 | 79.4 | inactive
Muc5b (GeneID 74180) | 1 | 78.4 | 113 | inactive
Muc5b (GeneID 74180) | 2 | 67.4 | 57.5 | inactive
Myef2 (GeneID 17876) | 1 | 77.5 | 99.8 | inactive
Myef2 (GeneID 17876) | 2 | 73.9 | 87.8 | inactive
Myef2 (GeneID 17876) | 3 | 70.6 | 71.3 | inactive
Tbc1d17 (GeneID 233204) | 1 | 136 | 112 | active
Tbc1d17 (GeneID 233204) | 2 | 119 | 116 | inactive
Tbc1d17 (GeneID 233204) | 3 | 117 | 89.4 | inactive
Ak4 (GeneID 11639) | 1 | 44.4 | 65.1 | inactive
Ak4 (GeneID 11639) | 2 | 82.6 | 84.2 | inactive
Ak4 (GeneID 11639) | 3 | 79.6 | 87.4 | inactive
Wfdc21 (GeneID 66107) | 1 | 45.1 | 50.2 | inactive
Wfdc21 (GeneID 66107) | 2 | 180 | 116 | active
Wfdc21 (GeneID 66107) | 3 | 156 | 72.6 | active
Wfdc21 (GeneID 66107) | 4 | 45.1 | 50.2 | inactive
Wfdc21 (GeneID 66107) | 5 | 109 | 87 | inactive
Wfdc21 (GeneID 66107) | 6 | 114 | 59.6 | inactive
Mettl1 (GeneID 17299) | 1 | 85.8 | 93.8 | inactive
Mettl1 (GeneID 17299) | 2 | 64.1 | 60.9 | inactive
Mettl1 (GeneID 17299) | 3 | 107 | 95.7 | inactive
Katnbl1 (GeneID 72425) | 1 | 111 | 70.9 | inactive
Katnbl1 (GeneID 72425) | 2 | 125 | 77.7 | active
Katnbl1 (GeneID 72425) | 3 | 62.1 | 60.2 | inactive
Prom1 (GeneID 19126) | 1 | 55.1 | 48.8 | inactive
Prom1 (GeneID 19126) | 2 | 102 | 93.1 | inactive
Prom1 (GeneID 19126) | 3 | 80.4 | 75.6 | inactive
Limk1 (GeneID 16885) | 1 | 78.7 | 60.3 | inactive
Gpr22 (GeneID 73010) | 1 | 181 | 47.5 | active
Gpr22 (GeneID 73010) | 2 | 71.6 | 65.6 | inactive
Gpr22 (GeneID 73010) | 3 | 80.2 | 62.1 | inactive
Gpr22 (GeneID 73010) | 4 | 119 | 86.2 | inactive
Gpr22 (GeneID 73010) | 5 | 85.7 | 79.7 | inactive
Gpr22 (GeneID 73010) | 6 | 96.7 | 95.3 | inactive
Snrnp25 (GeneID 78372) | 1 | 104 | 62 | inactive
Snrnp25 (GeneID 78372) | 2 | 63.4 | 60 | inactive
Snrnp25 (GeneID 78372) | 3 | 100 | 86.9 | inactive
Stc1 (GeneID 20855) | 1 | 103 | 54.6 | inactive
Stc1 (GeneID 20855) | 2 | 115 | 84.8 | inactive
Stc1 (GeneID 20855) | 3 | 53.7 | 96.9 | inactive
Ddr1 (GeneID 12305) | 1 | 145 | 50 | active
Ddr1 (GeneID 12305) | 2 | 99.6 | 87.1 | inactive
Ddr1 (GeneID 12305) | 3 | 96.7 | 98.9 | inactive
Golm2 (GeneID 319996) | 1 | 59.8 | 54.9 | inactive
Golm2 (GeneID 319996) | 2 | 111 | 78.3 | inactive
Golm2 (GeneID 319996) | 3 | 81.5 | 59.8 | inactive
Vmn1r47 (GeneID 113846) | 1 | 63.7 | 61.8 | inactive
Vmn1r47 (GeneID 113846) | 2 | 67.4 | 75.7 | inactive
Vmn1r47 (GeneID 113846) | 3 | 58.9 | 74.2 | inactive
Nt5c1b (GeneID 70881) | 1 | 78.2 | 71.5 | inactive
Nt5c1b (GeneID 70881) | 2 | 73 | 60.9 | inactive
Nt5c1b (GeneID 70881) | 3 | 57.4 | 53.5 | inactive
Trappc9 (GeneID 76510) | 1 | 97.5 | 65.9 | inactive
Trappc9 (GeneID 76510) | 2 | 158 | 58.4 | active
Trappc9 (GeneID 76510) | 3 | 87.6 | 100 | inactive
4930449I24Rik (GeneID 67410) | 1 | 49.7 | 41 | inactive
4930449I24Rik (GeneID 67410) | 2 | 52.9 | 59.9 | inactive
4930449I24Rik (GeneID 67410) | 3 | 92.8 | 72.3 | inactive

14 successive reagents already listed:
gene | reagent no. | GFP, % of control | viability (ATP), % of control | activity call
Nrsn2 (GeneID 228777) | 3 | 117 | 83.7 | inactive
Or4a78 (GeneID 259145) | 1 | 40.8 | 74.5 | inactive
Or4a78 (GeneID 259145) | 2 | 54.8 | 97.5 | inactive
Or4a78 (GeneID 259145) | 3 | 81.2 | 129 | inactive
Hps3 (GeneID 12807) | 1 | 46.1 | 64.3 | inactive
Hps3 (GeneID 12807) | 2 | 64.1 | 55.6 | inactive
Hps3 (GeneID 12807) | 3 | 60.5 | 77.3 | inactive
Slc26a11 (GeneID 268512) | 1 | 79.1 | 56.7 | inactive
Slc26a11 (GeneID 268512) | 2 | 78.1 | 85.7 | inactive
Slc26a11 (GeneID 268512) | 3 | 113 | 99.3 | inactive
Prnp (GeneID 19122) | 1 | 77.4 | 70.5 | inactive
Prnp (GeneID 19122) | 2 | 65.7 | 65.8 | inactive
Prnp (GeneID 19122) | 3 | 72.6 | 79.4 | inactive
Muc5b (GeneID 74180) | 1 | 78.4 | 113 | inactive
